Article PMC10655684
These are yes or no findings as the source states them, for the method shown. Binding seen in cells or lysates may run through a third protein. Some binding calls cover weakened binding; strength is not graded here.

Protein sequences, listed by entry. Tags and fused reporters are not part of them.
UniProt P35222: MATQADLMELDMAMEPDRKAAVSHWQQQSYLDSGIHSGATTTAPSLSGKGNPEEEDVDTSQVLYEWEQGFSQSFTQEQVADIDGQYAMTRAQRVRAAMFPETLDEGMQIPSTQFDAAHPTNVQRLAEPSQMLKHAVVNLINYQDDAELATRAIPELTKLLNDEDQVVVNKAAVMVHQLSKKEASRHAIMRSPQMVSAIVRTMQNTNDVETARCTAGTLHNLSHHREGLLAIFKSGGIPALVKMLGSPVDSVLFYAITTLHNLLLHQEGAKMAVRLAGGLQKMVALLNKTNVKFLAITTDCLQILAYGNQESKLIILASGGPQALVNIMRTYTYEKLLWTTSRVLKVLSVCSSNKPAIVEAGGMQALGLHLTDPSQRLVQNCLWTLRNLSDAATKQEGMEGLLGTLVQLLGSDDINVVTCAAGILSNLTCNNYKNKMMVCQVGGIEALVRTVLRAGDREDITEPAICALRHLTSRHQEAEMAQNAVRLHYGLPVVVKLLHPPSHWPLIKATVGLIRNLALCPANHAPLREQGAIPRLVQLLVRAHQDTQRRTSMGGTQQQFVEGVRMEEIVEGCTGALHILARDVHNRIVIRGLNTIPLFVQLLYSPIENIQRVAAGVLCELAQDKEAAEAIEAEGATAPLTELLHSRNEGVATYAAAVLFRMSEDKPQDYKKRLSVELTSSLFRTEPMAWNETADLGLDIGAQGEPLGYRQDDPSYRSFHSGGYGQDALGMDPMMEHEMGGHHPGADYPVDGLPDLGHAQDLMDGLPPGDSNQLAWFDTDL
UniProt Q03164: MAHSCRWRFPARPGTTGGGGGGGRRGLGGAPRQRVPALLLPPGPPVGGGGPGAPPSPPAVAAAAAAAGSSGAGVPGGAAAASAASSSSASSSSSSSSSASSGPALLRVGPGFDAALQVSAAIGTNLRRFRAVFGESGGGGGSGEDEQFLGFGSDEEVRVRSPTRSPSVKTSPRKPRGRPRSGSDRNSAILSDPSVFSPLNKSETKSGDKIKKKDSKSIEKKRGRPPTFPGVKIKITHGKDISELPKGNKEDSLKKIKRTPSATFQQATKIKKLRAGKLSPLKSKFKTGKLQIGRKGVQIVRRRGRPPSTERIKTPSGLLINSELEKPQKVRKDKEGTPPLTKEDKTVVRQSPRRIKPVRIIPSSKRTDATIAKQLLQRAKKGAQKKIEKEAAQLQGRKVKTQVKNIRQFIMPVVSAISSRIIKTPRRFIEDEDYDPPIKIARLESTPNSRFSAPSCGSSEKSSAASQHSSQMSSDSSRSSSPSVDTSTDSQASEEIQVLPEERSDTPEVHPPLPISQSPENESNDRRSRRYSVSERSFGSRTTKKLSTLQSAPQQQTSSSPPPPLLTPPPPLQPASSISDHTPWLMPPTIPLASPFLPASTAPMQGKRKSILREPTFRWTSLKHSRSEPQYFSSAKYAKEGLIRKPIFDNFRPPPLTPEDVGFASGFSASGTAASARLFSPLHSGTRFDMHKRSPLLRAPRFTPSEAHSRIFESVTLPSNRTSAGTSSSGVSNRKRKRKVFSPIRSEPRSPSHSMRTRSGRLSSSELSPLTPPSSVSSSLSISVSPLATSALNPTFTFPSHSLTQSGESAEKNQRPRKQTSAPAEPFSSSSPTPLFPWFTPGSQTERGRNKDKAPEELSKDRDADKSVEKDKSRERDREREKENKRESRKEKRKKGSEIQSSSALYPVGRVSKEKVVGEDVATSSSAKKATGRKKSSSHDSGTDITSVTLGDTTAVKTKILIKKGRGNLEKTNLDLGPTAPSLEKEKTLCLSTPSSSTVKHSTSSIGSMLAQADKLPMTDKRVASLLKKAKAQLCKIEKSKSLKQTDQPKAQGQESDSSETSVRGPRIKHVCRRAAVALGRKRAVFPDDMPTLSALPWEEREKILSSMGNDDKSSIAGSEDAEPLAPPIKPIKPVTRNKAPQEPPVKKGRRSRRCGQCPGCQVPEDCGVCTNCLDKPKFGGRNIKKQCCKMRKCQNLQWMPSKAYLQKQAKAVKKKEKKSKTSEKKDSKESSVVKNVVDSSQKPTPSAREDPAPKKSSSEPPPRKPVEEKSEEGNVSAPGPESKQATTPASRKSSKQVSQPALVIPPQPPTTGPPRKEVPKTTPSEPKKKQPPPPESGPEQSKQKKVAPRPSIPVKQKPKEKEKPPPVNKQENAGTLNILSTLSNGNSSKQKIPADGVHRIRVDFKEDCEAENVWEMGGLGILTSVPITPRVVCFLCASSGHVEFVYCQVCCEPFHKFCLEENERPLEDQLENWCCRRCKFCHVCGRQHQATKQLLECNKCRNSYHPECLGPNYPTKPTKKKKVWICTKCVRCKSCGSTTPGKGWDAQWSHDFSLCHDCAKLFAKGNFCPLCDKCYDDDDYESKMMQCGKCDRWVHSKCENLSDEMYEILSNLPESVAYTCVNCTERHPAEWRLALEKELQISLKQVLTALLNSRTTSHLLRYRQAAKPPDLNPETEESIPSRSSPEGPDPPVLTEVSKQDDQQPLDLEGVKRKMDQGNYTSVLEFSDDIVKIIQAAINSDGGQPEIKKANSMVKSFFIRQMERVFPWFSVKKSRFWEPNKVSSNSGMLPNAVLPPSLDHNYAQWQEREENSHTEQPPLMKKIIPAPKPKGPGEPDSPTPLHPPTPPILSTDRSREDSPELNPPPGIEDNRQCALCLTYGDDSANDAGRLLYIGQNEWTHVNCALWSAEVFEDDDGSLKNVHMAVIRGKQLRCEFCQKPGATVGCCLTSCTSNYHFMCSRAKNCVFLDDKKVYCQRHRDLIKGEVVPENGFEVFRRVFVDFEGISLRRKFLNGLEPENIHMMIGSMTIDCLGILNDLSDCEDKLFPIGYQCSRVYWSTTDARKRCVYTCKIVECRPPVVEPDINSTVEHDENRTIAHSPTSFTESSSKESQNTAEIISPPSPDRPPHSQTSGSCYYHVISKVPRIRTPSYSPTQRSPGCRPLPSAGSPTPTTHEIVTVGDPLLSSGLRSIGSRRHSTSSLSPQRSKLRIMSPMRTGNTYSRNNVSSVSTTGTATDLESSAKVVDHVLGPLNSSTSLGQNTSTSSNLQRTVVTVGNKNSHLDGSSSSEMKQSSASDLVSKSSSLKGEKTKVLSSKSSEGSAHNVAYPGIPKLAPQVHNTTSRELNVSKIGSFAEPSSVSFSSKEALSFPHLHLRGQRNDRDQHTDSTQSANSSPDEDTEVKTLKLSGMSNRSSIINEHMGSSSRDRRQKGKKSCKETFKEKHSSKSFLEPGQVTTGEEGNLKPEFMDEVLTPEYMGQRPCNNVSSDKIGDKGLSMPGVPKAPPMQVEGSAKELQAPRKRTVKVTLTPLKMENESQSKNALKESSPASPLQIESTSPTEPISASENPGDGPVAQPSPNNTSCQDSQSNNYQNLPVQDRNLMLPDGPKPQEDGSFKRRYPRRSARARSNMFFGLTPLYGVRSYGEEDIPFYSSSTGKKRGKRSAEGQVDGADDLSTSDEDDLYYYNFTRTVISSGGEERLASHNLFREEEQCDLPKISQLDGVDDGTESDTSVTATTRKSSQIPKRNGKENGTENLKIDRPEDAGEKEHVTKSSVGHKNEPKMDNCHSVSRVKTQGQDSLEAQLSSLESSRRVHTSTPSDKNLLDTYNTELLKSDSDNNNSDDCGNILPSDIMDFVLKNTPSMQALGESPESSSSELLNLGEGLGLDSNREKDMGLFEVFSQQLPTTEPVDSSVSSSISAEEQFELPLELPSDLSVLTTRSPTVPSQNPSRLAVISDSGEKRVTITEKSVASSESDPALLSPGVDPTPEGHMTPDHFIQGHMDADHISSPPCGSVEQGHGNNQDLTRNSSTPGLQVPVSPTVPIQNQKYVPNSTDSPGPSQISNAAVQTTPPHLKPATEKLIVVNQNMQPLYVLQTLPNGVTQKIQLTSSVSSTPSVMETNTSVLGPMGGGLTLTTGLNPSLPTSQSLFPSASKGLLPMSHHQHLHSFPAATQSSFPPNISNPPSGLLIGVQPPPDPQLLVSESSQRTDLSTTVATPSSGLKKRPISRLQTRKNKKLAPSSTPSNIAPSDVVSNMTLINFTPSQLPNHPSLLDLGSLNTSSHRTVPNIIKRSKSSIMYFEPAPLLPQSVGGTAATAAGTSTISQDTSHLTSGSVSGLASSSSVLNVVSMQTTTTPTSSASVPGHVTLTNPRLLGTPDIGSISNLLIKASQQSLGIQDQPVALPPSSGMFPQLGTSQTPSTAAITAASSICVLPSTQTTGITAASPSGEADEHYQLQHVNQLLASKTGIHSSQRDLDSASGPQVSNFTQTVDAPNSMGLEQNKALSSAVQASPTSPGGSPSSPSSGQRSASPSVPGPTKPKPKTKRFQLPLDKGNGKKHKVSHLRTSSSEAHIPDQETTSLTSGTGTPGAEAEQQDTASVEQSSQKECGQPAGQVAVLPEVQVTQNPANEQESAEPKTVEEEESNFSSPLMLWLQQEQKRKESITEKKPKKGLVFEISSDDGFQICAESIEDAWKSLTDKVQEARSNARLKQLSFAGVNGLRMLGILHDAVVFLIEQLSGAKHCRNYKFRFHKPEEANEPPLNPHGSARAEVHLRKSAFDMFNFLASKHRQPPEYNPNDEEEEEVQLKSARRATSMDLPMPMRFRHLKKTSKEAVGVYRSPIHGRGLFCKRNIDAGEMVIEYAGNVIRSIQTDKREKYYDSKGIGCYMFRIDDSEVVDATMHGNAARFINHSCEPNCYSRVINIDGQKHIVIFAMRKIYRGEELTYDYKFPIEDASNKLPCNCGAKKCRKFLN
UniProt O14901: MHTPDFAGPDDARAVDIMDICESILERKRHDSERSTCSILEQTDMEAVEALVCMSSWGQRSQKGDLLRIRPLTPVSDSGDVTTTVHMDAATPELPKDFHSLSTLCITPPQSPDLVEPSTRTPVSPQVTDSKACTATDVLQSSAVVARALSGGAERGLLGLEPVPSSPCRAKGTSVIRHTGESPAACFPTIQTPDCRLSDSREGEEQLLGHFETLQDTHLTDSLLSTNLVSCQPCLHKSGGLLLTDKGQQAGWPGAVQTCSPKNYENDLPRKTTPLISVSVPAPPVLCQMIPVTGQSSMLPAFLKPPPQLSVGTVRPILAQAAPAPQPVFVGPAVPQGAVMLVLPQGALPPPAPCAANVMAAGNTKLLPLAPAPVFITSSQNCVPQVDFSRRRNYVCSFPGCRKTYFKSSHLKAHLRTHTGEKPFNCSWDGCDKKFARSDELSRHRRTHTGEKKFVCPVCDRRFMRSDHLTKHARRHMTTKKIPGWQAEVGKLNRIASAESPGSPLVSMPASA

Target: β-catenin (human (endogenous in BGC-823)) (UniProt P35222)
Assay: co-IP; immunoprecipitation from BGC-823 cells with anti-β-catenin antibody, western blot with anti-KLF11 or anti-KMT2A antibodies

For “KMT2A (from UniProt Q03164 1-3969) (enzyme)”, the binding was “binds”.

For “KLF Transcription Factor 11 (from UniProt O14901 1-512)”, the binding was “binds”.
